Measurements published in paper PMC3674349.
No constants are given. Whether binding was seen depends on the method and setting. In cells and extracts the contact can be indirect. Some results given as binding are weak or reduced against the parent protein; the word gives no strength.

Protein sequences, listed by entry. Tags and fused reporters are not part of them.
UniProt Q14571: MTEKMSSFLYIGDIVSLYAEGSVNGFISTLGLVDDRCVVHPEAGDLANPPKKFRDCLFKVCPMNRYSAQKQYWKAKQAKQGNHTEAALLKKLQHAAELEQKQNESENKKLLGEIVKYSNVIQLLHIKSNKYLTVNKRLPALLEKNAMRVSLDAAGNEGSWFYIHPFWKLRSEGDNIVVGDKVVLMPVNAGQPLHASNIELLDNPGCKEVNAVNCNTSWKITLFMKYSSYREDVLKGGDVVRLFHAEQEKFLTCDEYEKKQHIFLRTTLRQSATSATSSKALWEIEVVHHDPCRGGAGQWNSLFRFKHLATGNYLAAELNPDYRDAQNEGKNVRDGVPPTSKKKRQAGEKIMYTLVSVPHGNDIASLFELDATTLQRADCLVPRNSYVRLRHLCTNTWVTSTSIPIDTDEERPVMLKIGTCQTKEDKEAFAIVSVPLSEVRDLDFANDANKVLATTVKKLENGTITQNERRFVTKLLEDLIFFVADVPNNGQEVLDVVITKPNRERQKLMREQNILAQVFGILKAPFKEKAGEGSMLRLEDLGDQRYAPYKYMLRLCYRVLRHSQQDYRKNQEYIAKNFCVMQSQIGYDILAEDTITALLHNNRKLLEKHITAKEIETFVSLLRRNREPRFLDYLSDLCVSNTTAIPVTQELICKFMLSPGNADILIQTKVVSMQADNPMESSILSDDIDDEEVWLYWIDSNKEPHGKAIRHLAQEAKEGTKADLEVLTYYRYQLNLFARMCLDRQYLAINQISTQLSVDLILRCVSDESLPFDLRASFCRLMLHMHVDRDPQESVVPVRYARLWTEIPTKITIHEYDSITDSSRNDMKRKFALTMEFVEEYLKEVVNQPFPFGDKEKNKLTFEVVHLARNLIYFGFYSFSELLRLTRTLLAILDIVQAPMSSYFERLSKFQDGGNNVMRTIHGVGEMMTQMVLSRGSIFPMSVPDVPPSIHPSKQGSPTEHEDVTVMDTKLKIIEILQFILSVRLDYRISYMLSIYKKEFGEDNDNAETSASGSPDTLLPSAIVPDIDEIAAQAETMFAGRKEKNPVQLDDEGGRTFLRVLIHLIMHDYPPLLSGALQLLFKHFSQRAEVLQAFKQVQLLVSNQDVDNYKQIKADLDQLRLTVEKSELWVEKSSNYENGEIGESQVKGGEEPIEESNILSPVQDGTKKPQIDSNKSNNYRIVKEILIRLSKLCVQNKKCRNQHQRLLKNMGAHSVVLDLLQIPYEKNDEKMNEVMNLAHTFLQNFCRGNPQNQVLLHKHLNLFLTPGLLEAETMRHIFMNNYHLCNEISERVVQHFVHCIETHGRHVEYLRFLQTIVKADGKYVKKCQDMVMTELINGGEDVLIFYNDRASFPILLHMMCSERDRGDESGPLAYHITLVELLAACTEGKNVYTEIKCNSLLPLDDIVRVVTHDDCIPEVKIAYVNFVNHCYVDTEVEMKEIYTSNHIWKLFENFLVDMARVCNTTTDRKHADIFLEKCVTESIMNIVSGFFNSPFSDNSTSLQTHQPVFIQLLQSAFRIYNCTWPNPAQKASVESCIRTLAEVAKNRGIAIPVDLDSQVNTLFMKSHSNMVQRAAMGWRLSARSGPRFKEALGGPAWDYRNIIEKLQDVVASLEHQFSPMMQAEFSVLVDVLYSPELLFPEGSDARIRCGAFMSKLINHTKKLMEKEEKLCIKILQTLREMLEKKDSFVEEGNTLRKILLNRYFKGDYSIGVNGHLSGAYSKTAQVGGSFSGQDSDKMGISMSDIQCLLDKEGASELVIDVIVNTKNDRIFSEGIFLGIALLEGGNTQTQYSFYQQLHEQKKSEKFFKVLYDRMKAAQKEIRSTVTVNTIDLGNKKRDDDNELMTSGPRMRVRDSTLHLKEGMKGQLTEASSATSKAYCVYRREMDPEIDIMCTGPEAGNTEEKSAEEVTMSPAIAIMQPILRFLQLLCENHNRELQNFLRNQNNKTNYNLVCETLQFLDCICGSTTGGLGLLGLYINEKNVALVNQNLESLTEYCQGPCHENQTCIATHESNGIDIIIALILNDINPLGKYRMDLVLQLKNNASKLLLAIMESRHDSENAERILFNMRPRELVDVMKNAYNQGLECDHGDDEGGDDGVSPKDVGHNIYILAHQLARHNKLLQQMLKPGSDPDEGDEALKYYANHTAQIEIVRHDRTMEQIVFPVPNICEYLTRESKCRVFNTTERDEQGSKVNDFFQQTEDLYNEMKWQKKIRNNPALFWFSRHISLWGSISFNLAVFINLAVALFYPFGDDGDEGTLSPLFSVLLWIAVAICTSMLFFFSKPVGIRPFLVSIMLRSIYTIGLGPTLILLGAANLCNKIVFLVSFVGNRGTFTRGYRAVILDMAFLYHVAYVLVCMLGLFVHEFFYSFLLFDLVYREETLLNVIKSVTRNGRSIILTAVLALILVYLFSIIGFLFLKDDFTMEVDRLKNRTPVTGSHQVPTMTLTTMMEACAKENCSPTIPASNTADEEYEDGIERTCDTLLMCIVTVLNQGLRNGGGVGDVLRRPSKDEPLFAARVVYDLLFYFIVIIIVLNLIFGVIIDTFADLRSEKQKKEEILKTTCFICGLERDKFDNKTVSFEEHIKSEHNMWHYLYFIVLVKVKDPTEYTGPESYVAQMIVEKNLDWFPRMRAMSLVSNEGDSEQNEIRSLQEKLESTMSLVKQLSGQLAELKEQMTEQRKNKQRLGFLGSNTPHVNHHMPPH
UniProt P10415: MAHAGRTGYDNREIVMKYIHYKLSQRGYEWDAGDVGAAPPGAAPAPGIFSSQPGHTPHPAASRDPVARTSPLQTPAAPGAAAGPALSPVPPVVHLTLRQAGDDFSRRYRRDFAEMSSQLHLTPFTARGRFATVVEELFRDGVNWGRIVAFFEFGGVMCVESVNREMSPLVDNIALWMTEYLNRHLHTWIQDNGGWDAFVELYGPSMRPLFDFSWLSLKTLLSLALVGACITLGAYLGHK

What was measured:
[1] = molecular target: inositol 1,4,5-trisphosphate receptor type 2 (IP3R2) (human (endogenous in SU-DHL-4 and OCI-LY-1)) (UniProt Q14571); assay: co-IP; OCI-LY-1 lysate (25 mM HEPES pH 7.5, 1% Triton X-100, 300 mM NaCl); endogenous IP3R2 or IP3R3 immunoprecipitated on Protein-A/G magnetic beads overnight, blot for Bcl-2; cells pretreated 2 h without or with 10 μM TAT-IDP^S
[2] = molecular target: inositol 1,4,5-trisphosphate receptor type 2 (IP3R2) (human (endogenous in SU-DHL-4 and OCI-LY-1)) (UniProt Q14571); assay: co-IP; SU-DHL-4 lysate (25 mM HEPES pH 7.5, 1% Triton X-100, 300 mM NaCl); endogenous IP3R2 or IP3R3 immunoprecipitated on Protein-A/G magnetic beads overnight, blot for Bcl-2; cells pretreated 2 h without or with 10 μM TAT-IDP^S

B-cell lymphoma 2 (Bcl-2) (from UniProt P10415 1-239)
binding [1]: binds weakly
binding [2]: binds
